We go through 42 sequences from article PMC7819943, “Rice protein-binding microarrays: a tool to detect cis-acting elements near promoter regions in rice”.

Sequences of proteins named here, by UniProt entry; tags and fusion partners are left off.
UniProt Q0JBA9, entry or part of it: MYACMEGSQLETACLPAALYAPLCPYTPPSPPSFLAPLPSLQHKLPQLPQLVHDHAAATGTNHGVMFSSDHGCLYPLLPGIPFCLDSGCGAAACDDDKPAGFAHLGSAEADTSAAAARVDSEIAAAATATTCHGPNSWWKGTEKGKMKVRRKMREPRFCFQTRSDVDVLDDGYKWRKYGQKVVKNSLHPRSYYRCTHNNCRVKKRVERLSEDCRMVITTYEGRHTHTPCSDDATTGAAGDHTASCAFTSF

This is one part of the list.

This assay has as its target OsWRKY34 (Oryza sativa, UniProt Q0JBA9 1-250). The assay can be described thus: protein-binding microarray (RPBM); PBS, 2% BSA, 51.3 ng/ul salmon testes DNA, 50 uM zinc acetate, 200 nM TF, 25 C, 1 h; high values mean tight binding. The following applies: protein: recombinant; tags: N-terminal polyhistidine and DsRed monomer fusion (pET32a); label: CyDye5-dUTP incorporated in the synthesized complementary strand; 3' TTTTT single-stranded linker to array surface; dsDNA, one strand shown. In outline:
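The binding signal is fluorescence intensity per feature, in arbitrary units, read on an Axon 4000B scanner. Polyhistidine- and DsRed-tagged transcription factors (N-terminal fusions) from E. coli BL21-CodonPlus were purified on Ni–NTA and applied at 200 nM for 1 h at 25 °C to a double-stranded, BSA-blocked custom Agilent array in buffer with 50 µM zinc acetate.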
For “CCGGAGCCGCTTCTTCTCCGTCCGCCGCCGGAGCAGGTCCCGGAGTCACCTAGTGCAG”, the binding signal is 8140 fluorescence intensity (a.u.). For “TTCCCATACCAAACACCAGCTCACACACACTGTCTTCCAGCGGAGTCACCTAGTGCAG” the value was 8650 fluorescence intensity (a.u.). As for “GGAATGGAGGGAGCAGTATCACGTCGTTAAAGTTGTTGTACGGAGTCACCTAGTGCAG”, the binding signal is 10100 fluorescence intensity (a.u.). For “CATGCCATTTCGTCCCTCCATCTACCCGCTCCACGCCGCCCGGAGTCACCTAGTGCAG” the value was 10600 fluorescence intensity (a.u.); for “TAGCAGCCGCGCCTTCCAGCTCGCCGCGACCGCCCGTGCCCGGAGTCACCTAGTGCAG”, 8610 fluorescence intensity (a.u.); for “CACTGGGCCTGCCTCTACCCTACCGGCCACTATACTGCTACGGAGTCACCTAGTGCAG”, 8210 fluorescence intensity (a.u.). Take “CACGAGCATGTACTATAGTTTGATGCTTATTTCCTGTCTTCGGAGTCACCTAGTGCAG”: the binding signal was 10000 fluorescence intensity (a.u.). With “TGGCTTTTTTGTATTCGGGCCCCTTGCCGCCCCACCAGAGCGGAGTCACCTAGTGCAG” the figure was 10000 fluorescence intensity (a.u.); with “CTTGAGGTCCTTCGATGGTTTTGACCCTGATTTTATTTGACGGAGTCACCTAGTGCAG”, 9060 fluorescence intensity (a.u.); with “GGGCCTAGTTTTTCCAGGTAAAGTTGACCAAAAGTCTTCACGGAGTCACCTAGTGCAG”, 8890 fluorescence intensity (a.u.). With “AATCTTAACTACTCTCTCCGTTTCACAATGTAAGTCATTTCGGAGTCACCTAGTGCAG” the figure was 9210 fluorescence intensity (a.u.); with “ACCGCCATTTCTGGTTTCTTGGCCGCCCTCTGCCACCACTCGGAGTCACCTAGTGCAG”, 10300 fluorescence intensity (a.u.); with “CCCAGTCAAGCCACCGTAATTCCACACAGTCTCCATGCCTCGGAGTCACCTAGTGCAG”, 8680 fluorescence intensity (a.u.). For “ATAAGACGGATGGTTAAACGTTGGTCCAAAAGTCAACGGTCGGAGTCACCTAGTGCAG” the value was 13200 fluorescence intensity (a.u.); for “GAAGCAAAGGAAGGGAGGGGAGATTGGGTTTGGGTGGTGTCGGAGTCACCTAGTGCAG”, 9190 fluorescence intensity (a.u.).

Take “ACTCCTTTTTTGGCTGCCCATCCACAGTCGCCACCAGAAACGGAGTCACCTAGTGCAG”: the binding signal was 8210 fluorescence intensity (a.u.).

As to “TATTCATTGGCATAGTTGTGATGCTTTGTTCTTGTTCTTGCGGAGTCACCTAGTGCAG”, the binding signal was 8440 fluorescence intensity (a.u.). For “TCTCTATGCCGCACCGTGCATCCATGCCTGGTTTTCTTTGCGGAGTCACCTAGTGCAG” the value was 8040 fluorescence intensity (a.u.); for “CCCTTGACATAATCCCGAGCGATTTTATTCTATATGGCATCGGAGTCACCTAGTGCAG”, 8820 fluorescence intensity (a.u.); for “GGAATATATCCTGTTTTTTTTTCATCATTCTCTTTCTTTCCGGAGTCACCTAGTGCAG”, 15300 fluorescence intensity (a.u.).

On to “GCCTTCTCCATCTCTCTGCTTCTTTTGTTTGTTTTTCTTTCGGAGTCACCTAGTGCAG”, for which the binding signal was 13000 fluorescence intensity (a.u.).

Regarding “TTCCTTTTGGCCACTCTTTGATTTCTTTTTTCAATTCTATCGGAGTCACCTAGTGCAG”, the binding signal was 11500 fluorescence intensity (a.u.). With “TCGCTCGCTTTCTGTCCCTGCGATCTGTCGCCGCCGTCGTCGGAGTCACCTAGTGCAG” the figure was 10000 fluorescence intensity (a.u.); with “AGGCCCATCGTACTACTTTCCTTCCTGCTATACTCGCGCACGGAGTCACCTAGTGCAG”, 13400 fluorescence intensity (a.u.); with “GAGCAAAAGGAGAGAGAGAGAGAGTCTTTTCAATTTTCTTCGGAGTCACCTAGTGCAG”, 8270 fluorescence intensity (a.u.).

Regarding “GGTGTGGGAGGAAGAACGGGACGGGGTGGCGTCACCATCGCGGAGTCACCTAGTGCAG”, the binding signal was 8250 fluorescence intensity (a.u.). As to “TCACTCCCCACTACTTTCCCGCTCTCCTCGTATAAAACCTCGGAGTCACCTAGTGCAG”, the binding signal is 8280 fluorescence intensity (a.u.). With “CTCCATCGCTTCGCTCTTCGCCGGATCTAGCACCGACGGTCGGAGTCACCTAGTGCAG” the figure was 9000 fluorescence intensity (a.u.).

Take “TAATCTAGAGTGAGTTTGTACTAATTGGTTGGGTGGTTTTCGGAGTCACCTAGTGCAG”: the binding signal was 8860 fluorescence intensity (a.u.). For “CCTCCTCAACGCCGCCACCTCATCCGTCCATACAGCGCCGCGGAGTCACCTAGTGCAG” the value was 12100 fluorescence intensity (a.u.). For “ATTCTTCTTTCCTTTTGTCTGGAATGCTGATTCCTGAATCCGGAGTCACCTAGTGCAG” the value was 9150 fluorescence intensity (a.u.). For “TAATGTTTATTAGGAGTTGTTCATTTTTCGTGCTATATTACGGAGTCACCTAGTGCAG” the value was 8570 fluorescence intensity (a.u.). As for “GCTTCTTCCTCCGCCACCTCTCTGGTCTTTCCGCGTGTCGCGGAGTCACCTAGTGCAG”, the binding signal is 10400 fluorescence intensity (a.u.). For “TTAGTGATTTCTTGTCTCCTGATCATCTGTAGTCTGTAGACGGAGTCACCTAGTGCAG” the value was 8160 fluorescence intensity (a.u.). For “GGTTTATAAATACCGATGGCCACCTCGTTCTATTATCTCCCGGAGTCACCTAGTGCAG”, the binding signal is 8570 fluorescence intensity (a.u.). For “TCCTTTTATTCCCATCACTCCATTCATTGTTCTTGTTCTTCGGAGTCACCTAGTGCAG” the value was 9370 fluorescence intensity (a.u.); for “ATCTCGCCTCGCACCTCGCACCGCTCGCGCCGCCCCTCGCCGGAGTCACCTAGTGCAG”, 9020 fluorescence intensity (a.u.); for “GTGTAGTTAATTACTACACTAGGCTTTTGCTCGTCTTCCGCGGAGTCACCTAGTGCAG”, 8800 fluorescence intensity (a.u.). “TTGATGGGCTTGCAAACAGGAGATCGACACGTTAGTCTACCGGAGTCACCTAGTGCAG”: the binding signal is 8360 fluorescence intensity (a.u.). For “TGTGTGGTCGTAGGCTAGGGTTTCTCACGTCTCTCGCTGCCGGAGTCACCTAGTGCAG” the value was 8550 fluorescence intensity (a.u.); for “CACCATCATCCTGCATATCTCGTTTAATTGTGTATATATACGGAGTCACCTAGTGCAG”, 14100 fluorescence intensity (a.u.); for “CCTTTGTGGTTGACCAAATACAACTTCTCTTGGTCTTTTGCGGAGTCACCTAGTGCAG”, 9660 fluorescence intensity (a.u.).
